No constants are given. Whether binding was seen depends on the method and setting. In cells and extracts the contact can be indirect. Here binding means that the protein was enriched with, or labelled near, the bait; the list need not be complete.
T1: CCDC8 (UniProt Q9H0W5)
T1 sequence: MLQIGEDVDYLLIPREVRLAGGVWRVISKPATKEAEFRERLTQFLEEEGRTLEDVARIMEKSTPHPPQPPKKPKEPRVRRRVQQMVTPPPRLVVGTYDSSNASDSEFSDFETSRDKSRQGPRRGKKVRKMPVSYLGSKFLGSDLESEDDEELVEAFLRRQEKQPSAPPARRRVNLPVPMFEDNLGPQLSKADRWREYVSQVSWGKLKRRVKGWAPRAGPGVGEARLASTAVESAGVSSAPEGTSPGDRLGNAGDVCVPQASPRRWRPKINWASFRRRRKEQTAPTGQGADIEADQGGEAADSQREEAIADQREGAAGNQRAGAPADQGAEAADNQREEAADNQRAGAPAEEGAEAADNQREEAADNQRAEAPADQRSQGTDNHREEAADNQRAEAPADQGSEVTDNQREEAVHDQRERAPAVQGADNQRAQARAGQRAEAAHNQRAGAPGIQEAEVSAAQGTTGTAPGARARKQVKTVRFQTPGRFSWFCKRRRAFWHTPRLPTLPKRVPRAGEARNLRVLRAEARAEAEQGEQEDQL

Amino acid sequences for entries named in this document (tags omitted).
UniProt O75147: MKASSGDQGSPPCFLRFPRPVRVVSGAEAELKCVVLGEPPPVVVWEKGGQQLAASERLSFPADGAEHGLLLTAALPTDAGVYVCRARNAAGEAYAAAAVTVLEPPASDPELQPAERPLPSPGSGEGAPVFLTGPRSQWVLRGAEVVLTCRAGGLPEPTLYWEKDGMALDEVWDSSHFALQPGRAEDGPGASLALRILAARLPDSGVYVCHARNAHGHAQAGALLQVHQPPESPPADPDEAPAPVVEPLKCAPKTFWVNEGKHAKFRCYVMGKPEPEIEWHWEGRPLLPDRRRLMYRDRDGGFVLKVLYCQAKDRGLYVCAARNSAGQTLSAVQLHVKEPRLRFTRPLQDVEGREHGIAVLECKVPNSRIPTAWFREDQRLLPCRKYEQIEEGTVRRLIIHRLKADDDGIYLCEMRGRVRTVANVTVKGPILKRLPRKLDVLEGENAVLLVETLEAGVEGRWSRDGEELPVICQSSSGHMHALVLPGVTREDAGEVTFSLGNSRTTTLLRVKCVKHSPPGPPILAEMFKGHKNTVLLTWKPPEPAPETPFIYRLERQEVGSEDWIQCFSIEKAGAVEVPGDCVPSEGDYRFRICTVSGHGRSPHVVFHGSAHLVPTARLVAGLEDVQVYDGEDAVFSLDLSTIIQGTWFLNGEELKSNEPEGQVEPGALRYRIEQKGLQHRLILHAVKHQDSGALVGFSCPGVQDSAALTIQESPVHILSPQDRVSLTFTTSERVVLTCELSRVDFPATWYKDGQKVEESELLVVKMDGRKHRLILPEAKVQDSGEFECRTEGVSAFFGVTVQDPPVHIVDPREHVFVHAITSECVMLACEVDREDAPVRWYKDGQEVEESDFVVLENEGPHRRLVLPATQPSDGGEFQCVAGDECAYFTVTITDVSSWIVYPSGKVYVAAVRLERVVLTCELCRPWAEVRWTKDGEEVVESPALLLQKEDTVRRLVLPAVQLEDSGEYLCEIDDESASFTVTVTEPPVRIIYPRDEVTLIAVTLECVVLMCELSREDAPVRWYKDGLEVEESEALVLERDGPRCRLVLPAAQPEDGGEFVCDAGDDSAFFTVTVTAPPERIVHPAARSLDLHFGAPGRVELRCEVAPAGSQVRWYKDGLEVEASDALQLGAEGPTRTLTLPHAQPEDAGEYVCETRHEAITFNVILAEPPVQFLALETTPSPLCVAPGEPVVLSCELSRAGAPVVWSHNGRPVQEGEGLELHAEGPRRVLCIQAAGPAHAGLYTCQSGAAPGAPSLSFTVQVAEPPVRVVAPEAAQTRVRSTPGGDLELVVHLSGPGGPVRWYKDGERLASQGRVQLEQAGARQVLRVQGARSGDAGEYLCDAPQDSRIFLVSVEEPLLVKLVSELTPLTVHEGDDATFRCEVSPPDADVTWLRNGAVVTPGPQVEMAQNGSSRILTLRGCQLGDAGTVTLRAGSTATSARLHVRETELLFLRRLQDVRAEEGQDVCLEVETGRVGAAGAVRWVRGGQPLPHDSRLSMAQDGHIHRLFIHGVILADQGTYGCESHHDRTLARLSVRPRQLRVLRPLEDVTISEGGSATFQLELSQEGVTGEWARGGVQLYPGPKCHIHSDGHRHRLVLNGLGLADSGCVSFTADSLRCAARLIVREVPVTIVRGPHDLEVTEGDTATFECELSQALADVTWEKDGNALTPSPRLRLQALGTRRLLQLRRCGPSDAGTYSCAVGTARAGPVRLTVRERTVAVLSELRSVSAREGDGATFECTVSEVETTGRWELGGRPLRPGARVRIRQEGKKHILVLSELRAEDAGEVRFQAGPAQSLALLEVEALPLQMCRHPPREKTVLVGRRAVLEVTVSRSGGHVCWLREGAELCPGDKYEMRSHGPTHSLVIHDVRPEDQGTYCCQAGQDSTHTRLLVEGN
UniProt Q14999: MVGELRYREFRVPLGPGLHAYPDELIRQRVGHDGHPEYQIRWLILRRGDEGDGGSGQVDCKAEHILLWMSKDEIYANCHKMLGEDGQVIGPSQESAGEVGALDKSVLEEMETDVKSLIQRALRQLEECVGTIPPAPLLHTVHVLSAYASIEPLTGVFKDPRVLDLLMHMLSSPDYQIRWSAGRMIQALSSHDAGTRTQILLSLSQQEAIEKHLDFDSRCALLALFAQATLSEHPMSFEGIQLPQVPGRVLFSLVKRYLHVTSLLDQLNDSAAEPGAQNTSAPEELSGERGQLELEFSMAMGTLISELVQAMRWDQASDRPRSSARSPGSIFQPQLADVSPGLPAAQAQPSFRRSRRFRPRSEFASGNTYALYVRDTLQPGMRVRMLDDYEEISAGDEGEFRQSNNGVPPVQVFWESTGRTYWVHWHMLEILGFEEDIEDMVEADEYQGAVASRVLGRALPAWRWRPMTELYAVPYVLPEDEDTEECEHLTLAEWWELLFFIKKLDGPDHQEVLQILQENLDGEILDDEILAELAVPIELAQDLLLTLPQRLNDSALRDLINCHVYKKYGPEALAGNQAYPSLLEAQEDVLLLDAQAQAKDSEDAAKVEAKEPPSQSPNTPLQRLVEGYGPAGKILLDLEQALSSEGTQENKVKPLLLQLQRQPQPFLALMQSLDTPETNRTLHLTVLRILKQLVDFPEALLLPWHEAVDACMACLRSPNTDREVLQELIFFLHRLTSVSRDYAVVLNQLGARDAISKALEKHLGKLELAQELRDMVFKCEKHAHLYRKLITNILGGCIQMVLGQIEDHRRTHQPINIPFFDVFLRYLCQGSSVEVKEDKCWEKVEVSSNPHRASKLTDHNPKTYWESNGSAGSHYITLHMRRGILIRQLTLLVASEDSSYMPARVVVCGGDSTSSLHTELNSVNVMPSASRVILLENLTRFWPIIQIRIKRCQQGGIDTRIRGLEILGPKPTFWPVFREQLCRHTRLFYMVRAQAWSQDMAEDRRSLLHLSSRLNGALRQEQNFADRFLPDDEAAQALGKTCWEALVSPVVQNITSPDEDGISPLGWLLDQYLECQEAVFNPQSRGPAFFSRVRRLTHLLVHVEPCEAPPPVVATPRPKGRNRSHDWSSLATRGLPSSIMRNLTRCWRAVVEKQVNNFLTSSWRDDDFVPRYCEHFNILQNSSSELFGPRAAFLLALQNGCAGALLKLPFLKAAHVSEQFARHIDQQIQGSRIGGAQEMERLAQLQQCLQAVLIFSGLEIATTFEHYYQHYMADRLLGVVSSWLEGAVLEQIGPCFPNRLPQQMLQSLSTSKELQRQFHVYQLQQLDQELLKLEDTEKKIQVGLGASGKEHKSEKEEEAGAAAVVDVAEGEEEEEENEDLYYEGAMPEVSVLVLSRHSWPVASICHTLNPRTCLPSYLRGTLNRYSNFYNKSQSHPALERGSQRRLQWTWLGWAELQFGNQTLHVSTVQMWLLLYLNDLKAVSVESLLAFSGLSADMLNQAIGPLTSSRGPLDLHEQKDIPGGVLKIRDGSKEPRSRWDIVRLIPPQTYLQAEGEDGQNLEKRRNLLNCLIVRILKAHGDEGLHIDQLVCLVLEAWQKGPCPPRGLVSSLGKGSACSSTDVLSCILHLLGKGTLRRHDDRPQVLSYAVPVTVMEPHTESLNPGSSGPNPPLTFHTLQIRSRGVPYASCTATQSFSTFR

B1: YWHAQ (protein, UniProt P27348 1-245)
chain: MEKTELIQKAKLAEQAERYDDMATCMKAVTEQGAELSNEERNLLSVAYKNVVGGRRSAWRVISSIEQKTDTSDKKLQLIKDYREKVESELRSICTTVLELLDKYLIANATNPESKVFYLKMKGDYFRYLAEVACGDDRKQTIDNSQGAYQEAFDISKKEMQPTHPIRLGLALNFSVFYYEILNNPELACTLAKTAFDEAIAELDTLNEDSYKDSTLIMQLLRDNLTLWTSDSAGEECDAAEGAEN
B2: PA2G4 (protein, UniProt Q9UQ80 1-394)
chain: MSGEDEQQEQTIAEDLVVTKYKMGGDIANRVLRSLVEASSSGVSVLSLCEKGDAMIMEETGKIFKKEKEMKKGIAFPTSISVNNCVCHFSPLKSDQDYILKEGDLVKIDLGVHVDGFIANVAHTFVVDVAQGTQVTGRKADVIKAAHLCAEAALRLVKPGNQNTQVTEAWNKVAHSFNCTPIEGMLSHQLKQHVIDGEKTIIQNPTDQQKKDHEKAEFEVHEVYAVDVLVSSGEGKAKDAGQRTTIYKRDPSKQYGLKMKTSRAFFSEVERRFDAMPFTLRAFEDEKKARMGVVECAKHELLQPFNVLYEKEGEFVAQFKFTVLLMPNGPMRITSGPFEPDLYKSEMEVQDAELKALLQSSASRKTQKKKKKKASKTAENATSGETLEENEAGD
B3: PDIA6 (protein, UniProt Q15084 20-440)
chain: LYSSSDDVIELTPSNFNREVIQSDSLWLVEFYAPWCGHCQRLTPEWKKAATALKDVVKVGAVDADKHHSLGGQYGVQGFPTIKIFGSNKNRPEDYQGGRTGEAIVDAALSALRQLVKDRLGGRSGGYSSGKQGRSDSSSKKDVIELTDDSFDKNVLDSEDVWMVEFYAPWCGHCKNLEPEWAAAASEVKEQTKGKVKLAAVDATVNQVLASRYGIRGFPTIKIFQKGESPVDYDGGRTRSDIVSRALDLFSDNAPPPELLEIINEDIAKRTCEEHQLCVVAVLPHILDTGAAGRNSYLEVLLKLADKYKKKMWGWLWTEAGAQSELETALGIGGFGYPAMAAINARKMKFALLKGSFSEQGINEFLRELSFGRGSTAPVGGGAFPTIVEREPWDGRDGELPVEDDIDLSDVELDDLGKDEL
B4: JUP (protein, UniProt P14923 1-745)
chain: MEVMNLMEQPIKVTEWQQTYTYDSGIHSGANTCVPSVSSKGIMEEDEACGRQYTLKKTTTYTQGVPPSQGDLEYQMSTTARAKRVREAMCPGVSGEDSSLLLATQVEGQATNLQRLAEPSQLLKSAIVHLINYQDDAELATRALPELTKLLNDEDPVVVTKAAMIVNQLSKKEASRRALMGSPQLVAAVVRTMQNTSDLDTARCTTSILHNLSHHREGLLAIFKSGGIPALVRMLSSPVESVLFYAITTLHNLLLYQEGAKMAVRLADGLQKMVPLLNKNNPKFLAITTDCLQLLAYGNQESKLIILANGGPQALVQIMRNYSYEKLLWTTSRVLKVLSVCPSNKPAIVEAGGMQALGKHLTSNSPRLVQNCLWTLRNLSDVATKQEGLESVLKILVNQLSVDDVNVLTCATGTLSNLTCNNSKNKTLVTQNSGVEALIHAILRAGDKDDITEPAVCALRHLTSRHPEAEMAQNSVRLNYGIPAIVKLLNQPNQWPLVKATIGLIRNLALCPANHAPLQEAAVIPRLVQLLVKAHQDAQRHVAAGTQQPYTDGVRMEEIVEGCTGALHILARDPMNRMEIFRLNTIPLFVQLLYSSVENIQRVAAGVLCELAQDKEAADAIDAEGASAPLMELLHSRNEGTATYAAAVLFRISEDKNPDYRKRVSVELTNSLFKHDPAAWEAAQSMIPINEPYGDDMDATYRPMYSSDVPLDPLEMHMDMDGDYPIDTYSDGLRPPYPTADHMLA
B5: NUP93 (protein, UniProt Q8N1F7 1-819)
chain: MDTEGFGELLQQAEQLAAETEGISELPHVERNLQEIQQAGERLRSRTLTRTSQETADVKASVLLGSRGLDISHISQRLESLSAATTFEPLEPVKDTDIQGFLKNEKDNALLSAIEESRKRTFGMAEEYHRESMLVEWEQVKQRILHTLLASGEDALDFTQESEPSYISDVGPPGRSSLDNIEMAYARQIYIYNEKIVNGHLQPNLVDLCASVAELDDKSISDMWTMVKQMTDVLLTPATDALKNRSSVEVRMEFVRQALAYLEQSYKNYTLVTVFGNLHQAQLGGVPGTYQLVRSFLNIKLPAPLPGLQDGEVEGHPVWALIYYCMRCGDLLAASQVVNRAQHQLGEFKTWFQEYMNSKDRRLSPATENKLRLHYRRALRNNTDPYKRAVYCIIGRCDVTDNQSEVADKTEDYLWLKLNQVCFDDDGTSSPQDRLTLSQFQKQLLEDYGESHFTVNQQPFLYFQVLFLTAQFEAAVAFLFRMERLRCHAVHVALVLFELKLLLKSSGQSAQLLSHEPGDPPCLRRLNFVRLLMLYTRKFESTDPREALQYFYFLRDEKDSQGENMFLRCVSELVIESREFDMILGKLENDGSRKPGVIDKFTSDTKPIINKVASVAENKGLFEEAAKLYDLAKNADKVLELMNKLLSPVVPQISAPQSNKERLKNMALSIAERYRAQGISANKFVDSTFYLLLDLITFFDEYHSGHIDRAFDIIERLKLVPLNQESVEERVAAFRNFSDEIRHNLSEVLLATMNILFTQFKRLKGTSPSSSSRPQRVIEDRDSQLRSQARTLITFAGMIPYRTSGDTNARLVQMEVLMN
B6: HNRNPL (protein, UniProt P14866 1-589)
chain: MSRRLLPRAEKRRRRLEQRQQPDEQRRRSGAMVKMAAAGGGGGGGRYYGGGSEGGRAPKRLKTDNAGDQHGGGGGGGGGAGAAGGGGGGENYDDPHKTPASPVVHIRGLIDGVVEADLVEALQEFGPISYVVVMPKKRQALVEFEDVLGACNAVNYAADNQIYIAGHPAFVNYSTSQKISRPGDSDDSRSVNSVLLFTILNPIYSITTDVLYTICNPCGPVQRIVIFRKNGVQAMVEFDSVQSAQRAKASLNGADIYSGCCTLKIEYAKPTRLNVFKNDQDTWDYTNPNLSGQGDPGSNPNKRQRQPPLLGDHPAEYGGPHGGYHSHYHDEGYGPPPPHYEGRRMGPPVGGHRRGPSRYGPQYGHPPPPPPPPEYGPHADSPVLMVYGLDQSKMNCDRVFNVFCLYGNVEKVKFMKSKPGAAMVEMADGYAVDRAITHLNNNFMFGQKLNVCVSKQPAIMPGQSYGLEDGSCSYKDFSESRNNRFSTPEQAAKNRIQHPSNVLHFFNAPLEVTEENFFEICDELGVKRPSSVKVFSGKSERSSSGLLEWESKSDALETLGFLNHYQMKNPNGPYPYTLKLCFSTAQHAS
B7: HNRNPR (protein, UniProt O43390 1-633)
chain: MANQVNGNAVQLKEEEEPMDTSSVTHTEHYKTLIEAGLPQKVAERLDEIFQTGLVAYVDLDERAIDALREFNEEGALSVLQQFKESDLSHVQNKSAFLCGVMKTYRQREKQGSKVQESTKGPDEAKIKALLERTGYTLDVTTGQRKYGGPPPDSVYSGVQPGIGTEVFVGKIPRDLYEDELVPLFEKAGPIWDLRLMMDPLSGQNRGYAFITFCGKEAAQEAVKLCDSYEIRPGKHLGVCISVANNRLFVGSIPKNKTKENILEEFSKVTEGLVDVILYHQPDDKKKNRGFCFLEYEDHKSAAQARRRLMSGKVKVWGNVVTVEWADPVEEPDPEVMAKVKVLFVRNLATTVTEEILEKSFSEFGKLERVKKLKDYAFVHFEDRGAAVKAMDEMNGKEIEGEEIEIVLAKPPDKKRKERQAARQASRSTAYEDYYYHPPPRMPPPIRGRGRGGGRGGYGYPPDYYGYEDYYDDYYGYDYHDYRGGYEDPYYGYDDGYAVRGRGGGRGGRGAPPPPRGRGAPPPRGRAGYSQRGAPLGPPRGSRGGRGGPAQQQRGRGSRGSRGNRGGNVGGKRKADGYNQPDSKRRQTNNQQNWGSQPIAQQPLQQGGDYSGNYGYNNDNQEFYQDTYGQQWK

biological target: V5-OBSL1 (UniProt O75147); test: affinity purification with mass spectrometry; lysates of HEK293 cells transfected with CUL7, V5-OBSL1 or CCDC8, 24 h post-transfection; IP with CUL7, V5 or CCDC8 antibody on protein G Dynabeads; SDS-PAGE, GeLC-MS/MS; proteins found in no antibody control IPs removed; only proteins present in all three IPs kept

binding	Binder
binds	B1
binds	B2
binds	B3
binds	B4
binds	B5
binds	B6
binds	B7

biological target: T1, CCDC8; test: as above

binding	Binder
binds	B1
binds	B2
binds	B3
binds	B4
binds	B5
binds	B6
binds	B7

biological target: CUL7 (UniProt Q14999); test: as above

binding	Binder
binds	B1
binds	B2
binds	B3
binds	B4
binds	B5
binds	B6
binds	B7

From publication PMC4045235
